No constants are given. Whether binding was seen depends on the method and setting. Binding seen in cells or lysates may run through a third protein. Some binding calls cover weakened binding; strength is not graded here. Sequences can lack the tags named with a protein.

Sequences of proteins named here, by UniProt entry; tags and fusion partners are left off.
UniProt Q14999: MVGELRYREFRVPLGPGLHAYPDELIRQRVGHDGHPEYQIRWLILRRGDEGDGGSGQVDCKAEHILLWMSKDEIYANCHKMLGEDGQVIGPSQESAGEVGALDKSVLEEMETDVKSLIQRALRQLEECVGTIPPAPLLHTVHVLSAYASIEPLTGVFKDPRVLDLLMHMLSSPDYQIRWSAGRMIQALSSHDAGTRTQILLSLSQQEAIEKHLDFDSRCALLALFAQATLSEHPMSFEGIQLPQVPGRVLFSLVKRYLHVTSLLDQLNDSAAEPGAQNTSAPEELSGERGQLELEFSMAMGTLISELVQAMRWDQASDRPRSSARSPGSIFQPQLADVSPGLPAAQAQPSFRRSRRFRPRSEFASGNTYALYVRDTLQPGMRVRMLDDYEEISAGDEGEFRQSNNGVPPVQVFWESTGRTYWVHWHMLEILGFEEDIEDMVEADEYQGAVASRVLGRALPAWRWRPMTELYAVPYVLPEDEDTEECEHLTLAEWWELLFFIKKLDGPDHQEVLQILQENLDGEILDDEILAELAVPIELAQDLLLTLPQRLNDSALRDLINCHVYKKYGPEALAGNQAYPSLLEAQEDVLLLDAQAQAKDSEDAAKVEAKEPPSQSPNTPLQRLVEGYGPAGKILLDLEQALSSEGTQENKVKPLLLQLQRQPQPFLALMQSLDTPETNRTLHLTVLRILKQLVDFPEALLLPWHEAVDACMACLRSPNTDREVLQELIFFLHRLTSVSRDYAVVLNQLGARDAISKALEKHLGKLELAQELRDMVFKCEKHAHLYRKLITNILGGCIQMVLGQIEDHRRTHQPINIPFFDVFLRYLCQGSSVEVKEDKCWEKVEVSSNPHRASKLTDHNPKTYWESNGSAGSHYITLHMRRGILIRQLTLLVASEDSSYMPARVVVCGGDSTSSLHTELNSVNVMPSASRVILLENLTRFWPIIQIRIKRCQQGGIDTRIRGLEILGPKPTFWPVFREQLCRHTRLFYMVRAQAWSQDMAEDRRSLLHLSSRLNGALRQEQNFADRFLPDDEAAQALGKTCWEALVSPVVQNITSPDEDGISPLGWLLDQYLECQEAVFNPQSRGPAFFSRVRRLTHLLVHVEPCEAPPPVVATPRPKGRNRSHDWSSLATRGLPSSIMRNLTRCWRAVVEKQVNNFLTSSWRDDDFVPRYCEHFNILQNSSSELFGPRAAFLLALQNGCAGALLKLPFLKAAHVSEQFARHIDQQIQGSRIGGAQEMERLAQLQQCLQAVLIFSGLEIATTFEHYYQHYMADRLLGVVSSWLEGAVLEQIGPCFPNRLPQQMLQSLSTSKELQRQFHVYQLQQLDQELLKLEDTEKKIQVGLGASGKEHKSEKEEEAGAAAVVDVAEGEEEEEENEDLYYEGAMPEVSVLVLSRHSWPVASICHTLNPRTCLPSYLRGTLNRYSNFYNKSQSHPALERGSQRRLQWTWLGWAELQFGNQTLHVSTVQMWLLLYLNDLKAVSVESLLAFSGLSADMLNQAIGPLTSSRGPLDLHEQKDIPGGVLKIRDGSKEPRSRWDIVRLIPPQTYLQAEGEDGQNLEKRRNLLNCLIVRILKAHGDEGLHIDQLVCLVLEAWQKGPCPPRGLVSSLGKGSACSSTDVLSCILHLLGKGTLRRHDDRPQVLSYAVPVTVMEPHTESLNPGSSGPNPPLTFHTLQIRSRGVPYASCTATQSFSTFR

This assay addresses T1, Myc-Fbw8 (UniProt Q8N3Y1).
T1 sequence: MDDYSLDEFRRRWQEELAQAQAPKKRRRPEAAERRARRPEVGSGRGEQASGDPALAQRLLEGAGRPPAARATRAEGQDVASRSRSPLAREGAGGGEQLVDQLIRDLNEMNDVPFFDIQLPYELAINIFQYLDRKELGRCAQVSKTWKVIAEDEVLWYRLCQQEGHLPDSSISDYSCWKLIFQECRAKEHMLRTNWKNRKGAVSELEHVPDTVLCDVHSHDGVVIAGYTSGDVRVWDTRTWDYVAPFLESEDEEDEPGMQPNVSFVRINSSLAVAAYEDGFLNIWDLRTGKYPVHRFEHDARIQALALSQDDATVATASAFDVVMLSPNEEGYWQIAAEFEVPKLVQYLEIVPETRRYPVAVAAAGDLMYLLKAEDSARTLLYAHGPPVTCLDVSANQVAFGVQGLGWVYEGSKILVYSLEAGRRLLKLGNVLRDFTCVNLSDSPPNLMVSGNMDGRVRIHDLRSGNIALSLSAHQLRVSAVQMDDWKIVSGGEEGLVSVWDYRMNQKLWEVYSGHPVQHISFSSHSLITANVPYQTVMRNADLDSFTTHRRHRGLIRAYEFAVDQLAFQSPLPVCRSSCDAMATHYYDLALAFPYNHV
As to the kind of experiment: co-IP; HeLa cells transfected with HA-CUL7, Flag-TBC1D3 and Myc-Fbw8; lysates (200 µg) immunoprecipitated with anti-TBC1D3 (2C7) or anti-Myc antibodies; immunoblot. A general note: In western blotting, separated proteins are transferred to a membrane and probed.

As to “Full-length HA-tagged CUL7 (from UniProt Q14999 1-1698)”, the binding entry is given as “binds”.

The values are drawn from paper PMC3459922.
